Drawing on the supplement of paper PMC7024190, this text covers log for 3 molecules.

Some of the results follow. This data set is noisy: repeats of one test often differ as much as different tests do.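 The cells were human embryonic kidney cells carrying a Renilla luciferase gene, driven by the HSV-TK promoter, on a plasmid put in briefly by transfection. This is the first-round screen of about ten thousand compounds, looking for ones that raise reporter output.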

This experiment deals with HEK 293FT. Kind of experiment: log relative Renilla luciferase luminescence (reporter expression vs reference, reference not stated) (log (base not stated)); higher = higher recombinant reporter expression. Particulars: 10 µM; time after transfection 48 h.
As for `O=c1c(O)c(-c2ccc(O)cc2)oc2cc(O)cc(O)c12` [Kaempferol], the log is -0.0231.

Take `O=c1cc(-c2ccc(O)cc2)oc2cc(O)cc(O)c12` [Apigenin]: the log is -0.0288.

For `Oc1ccc(/C=C/c2cc(O)cc(O)c2)cc1` [Resveratrol], the log stood at 0.0836.
